# Test results from article PMC12431657, “Discovery and mechanistic insights of dibenzoylmethane as a broad spectrum inhibitor of coronavirus” (PLOS Pathogens, 2025).
# Structures can show the parent of a compound that is named as a salt. Where two headings read alike, the source gives them in different places. About 60 (2%) of roughly 3,300 compounds showed an effect of 50% or more. The list shows a part of the results.
# Test system: HCoV-OC43
# Design: species or system RD; HTS, protection from HCoV-OC43 induced cell death, luminescent cell viability (CellCounting-Lite 2.0), inhibition rate
# Details: 24 h post infection, 1 h compound pre-incubation, 10 µM, inhibitor
Structure (SMILES),OC43 Inhibition rate [%],"OC43 Inhibition rate (OC43 Inhibition rate, 24 h) [%]"
CC(=O)CCc1ccc(O)cc1 [Raspberry ketone],0.8,–
C[C@@H]1[C@H](O)[C@@H](C)/C=C/C=C/C=C/C=C/C=C/C=C/C=C/[C@H](O[C@@H]2O[C@H](C)[C@@H](O)[C@H](N)[C@@H]2O)C[C@@H]2O[C@](O)(C[C@@H](O)C[C@@H](O)[C@H](O)CC[C@@H](O)C[C@@H](O)CC(=O)O[C@H]1C)C[C@H](O)[C@H]2C(=O)O [amphotericin B],103.7,–
CC(C)=CCCC(C)CC=O (stereo not shown) [Citronellal],-0.5,–
OC[C@H]1O[C@@H]2O[C@H]3[C@H](O)[C@@H](O)[C@@H](O[C@H]4[C@H](O)[C@@H](O)[C@@H](O[C@H]5[C@H](O)[C@@H](O)[C@@H](O[C@H]6[C@H](O)[C@@H](O)[C@@H](O[C@H]7[C@H](O)[C@@H](O)[C@@H](O[C@H]8[C@H](O)[C@@H](O)[C@@H](O[C@H]1[C@H](O)[C@H]2O)O[C@@H]8CO)O[C@@H]7CO)O[C@@H]6CO)O[C@@H]5CO)O[C@@H]4CO)O[C@@H]3CO [β-Cyclodextrin],-0.4,–
CCNC(=O)CC[C@H](N)C(=O)O [L-Theanine],1.5,–
N[C@H](CO)C(=O)O [D-Serine],-1.1,–
COc1cc(O)cc(CCc2ccc(O)c(OC)c2)c1 [Gigantol],-0.3,–
O=P(O)(O)O[C@H]1[C@H](OP(=O)(O)O)[C@@H](OP(=O)(O)O)[C@H](OP(=O)(O)O)[C@@H](OP(=O)(O)O)[C@H]1OP(=O)(O)O [Phytic acid (potassium)],–,-0.6
N[C@@H](CS)C(=O)O [L-Cysteine (hydrochloride hydrate)],–,-0.2
COc1cccc(CCc2cc(O)cc(OC)c2)c1 [3'-O-Methylbatatasin III],1,–
C=C1[C@@H](O)[C@]2(O)OC[C@]34[C@H]2[C@@]2(C)[C@H](O)C(=O)C=C(C)[C@@H]2C[C@H]3OC(=O)[C@H](O)[C@@]14O [Eurycomanone],54.5,–
C[C@@H](O)[C@@H](N)C(=O)O [D-Allothreonine],-0.1,–
C=C[C@@]1(C)CC[C@H]2C(=CC[C@@H]3[C@]2(C)CCC[C@@]3(C)C(=O)O)C1 [Isopimaric acid],16.1,–
CN1CC(=O)NC1=N [Creatinine],0.6,–
C=C(C)C1CC=C(C)C(O)C1 (mixture of isomers) [Carveol],1.3,–
O=c1c(O[C@@H]2O[C@H](CO)[C@@H](O)[C@H](O)[C@H]2O[C@@H]2O[C@H](CO)[C@@H](O)[C@H](O)[C@H]2O)c(-c2ccc(O)cc2)oc2cc(O)cc(O)c12 [Kaempferol 3-O-sophoroside],-0.1,–

# Two entries drawn at random from the list so far:
Structure (SMILES),OC43 Inhibition rate [%],"OC43 Inhibition rate (OC43 Inhibition rate, 24 h) [%]"
C=C(C)C1CC=C(C)C(O)C1 (mixture of isomers) [Carveol],1.3,–
C=C1[C@@H](O)[C@]2(O)OC[C@]34[C@H]2[C@@]2(C)[C@H](O)C(=O)C=C(C)[C@@H]2C[C@H]3OC(=O)[C@H](O)[C@@]14O [Eurycomanone],54.5,–
